This note sets out measurements from article PMC12255723.

The chains behind the UniProt entries cited, without tags or fusion partners.
UniProt P17844: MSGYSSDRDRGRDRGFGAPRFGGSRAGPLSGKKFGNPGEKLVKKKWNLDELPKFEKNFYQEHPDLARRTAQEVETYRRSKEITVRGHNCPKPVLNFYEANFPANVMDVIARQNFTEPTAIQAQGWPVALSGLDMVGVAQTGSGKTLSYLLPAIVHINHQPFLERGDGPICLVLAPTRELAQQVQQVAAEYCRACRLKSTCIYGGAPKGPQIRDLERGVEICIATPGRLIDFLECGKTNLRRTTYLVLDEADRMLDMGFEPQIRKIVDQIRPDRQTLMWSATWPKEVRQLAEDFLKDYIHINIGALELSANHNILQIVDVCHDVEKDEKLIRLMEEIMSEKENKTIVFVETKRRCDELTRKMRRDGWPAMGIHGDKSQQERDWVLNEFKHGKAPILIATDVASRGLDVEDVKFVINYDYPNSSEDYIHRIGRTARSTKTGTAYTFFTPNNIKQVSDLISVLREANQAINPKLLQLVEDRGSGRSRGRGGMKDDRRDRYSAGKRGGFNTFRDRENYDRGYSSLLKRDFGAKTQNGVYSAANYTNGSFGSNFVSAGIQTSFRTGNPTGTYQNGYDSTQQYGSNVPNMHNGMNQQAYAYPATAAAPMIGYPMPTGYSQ

These are yes or no findings as the source states them, for the method shown. In cells and extracts the contact can be indirect. These calls come from enrichment with a bait or labelling near it, and not all partners need be listed.

This assay has as its target T1, OTUD6B (bait of the IP-MS) (UniProt Q8N6M0).
T1 sequence: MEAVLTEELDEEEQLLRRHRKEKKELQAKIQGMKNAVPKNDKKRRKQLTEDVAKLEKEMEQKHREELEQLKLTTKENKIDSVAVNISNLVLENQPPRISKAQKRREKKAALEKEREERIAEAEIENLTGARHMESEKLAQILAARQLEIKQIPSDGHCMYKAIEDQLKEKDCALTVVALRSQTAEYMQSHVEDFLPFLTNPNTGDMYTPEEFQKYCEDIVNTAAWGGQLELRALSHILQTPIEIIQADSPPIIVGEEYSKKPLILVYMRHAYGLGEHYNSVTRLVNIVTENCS
Briefly: affinity purification with mass spectrometry; immunoprecipitation of OTUD6B from HCT116 cells and mass spectrometry (IP-MS); 558 interacting proteins.

With “DDX5 (from UniProt P17844 1-614) (enzyme)”, the binding entry was “binds”.
